# Data from article PMC12667536.
# Sequences of proteins named here, by UniProt entry; tags and fusion partners are left off. A change or cut given only in a name is not applied to a line headed by its entry. Residues count along the entry.
# UniProt P15311: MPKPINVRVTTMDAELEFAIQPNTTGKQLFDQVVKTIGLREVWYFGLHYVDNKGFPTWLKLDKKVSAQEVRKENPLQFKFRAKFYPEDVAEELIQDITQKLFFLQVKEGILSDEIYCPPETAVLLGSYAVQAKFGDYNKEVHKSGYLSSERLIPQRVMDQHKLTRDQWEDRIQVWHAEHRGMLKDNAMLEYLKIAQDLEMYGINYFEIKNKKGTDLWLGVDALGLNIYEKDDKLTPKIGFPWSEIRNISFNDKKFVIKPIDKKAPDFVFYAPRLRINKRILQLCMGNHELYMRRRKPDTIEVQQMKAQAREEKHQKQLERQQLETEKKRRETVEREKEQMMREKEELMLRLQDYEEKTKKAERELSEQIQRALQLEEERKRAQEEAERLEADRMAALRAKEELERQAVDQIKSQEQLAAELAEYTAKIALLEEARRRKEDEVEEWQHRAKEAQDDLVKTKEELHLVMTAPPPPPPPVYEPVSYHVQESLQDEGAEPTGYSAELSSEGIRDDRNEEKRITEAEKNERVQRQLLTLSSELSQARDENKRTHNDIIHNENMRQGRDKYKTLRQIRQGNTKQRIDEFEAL
# UniProt P11166: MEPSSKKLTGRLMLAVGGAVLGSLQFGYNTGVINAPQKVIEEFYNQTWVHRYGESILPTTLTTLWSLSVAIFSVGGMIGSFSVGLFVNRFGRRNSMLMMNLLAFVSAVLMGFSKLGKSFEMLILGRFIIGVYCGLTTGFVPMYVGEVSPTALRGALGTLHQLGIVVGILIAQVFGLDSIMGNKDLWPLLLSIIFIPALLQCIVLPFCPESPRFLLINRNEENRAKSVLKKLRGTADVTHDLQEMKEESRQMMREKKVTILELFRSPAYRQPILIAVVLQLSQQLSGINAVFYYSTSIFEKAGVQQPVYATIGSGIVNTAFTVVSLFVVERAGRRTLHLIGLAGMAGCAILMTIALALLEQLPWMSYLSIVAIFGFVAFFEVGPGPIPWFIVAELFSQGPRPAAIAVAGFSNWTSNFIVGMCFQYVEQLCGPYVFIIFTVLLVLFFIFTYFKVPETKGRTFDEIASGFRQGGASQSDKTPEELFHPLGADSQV
# UniProt P16070, residues 21-742: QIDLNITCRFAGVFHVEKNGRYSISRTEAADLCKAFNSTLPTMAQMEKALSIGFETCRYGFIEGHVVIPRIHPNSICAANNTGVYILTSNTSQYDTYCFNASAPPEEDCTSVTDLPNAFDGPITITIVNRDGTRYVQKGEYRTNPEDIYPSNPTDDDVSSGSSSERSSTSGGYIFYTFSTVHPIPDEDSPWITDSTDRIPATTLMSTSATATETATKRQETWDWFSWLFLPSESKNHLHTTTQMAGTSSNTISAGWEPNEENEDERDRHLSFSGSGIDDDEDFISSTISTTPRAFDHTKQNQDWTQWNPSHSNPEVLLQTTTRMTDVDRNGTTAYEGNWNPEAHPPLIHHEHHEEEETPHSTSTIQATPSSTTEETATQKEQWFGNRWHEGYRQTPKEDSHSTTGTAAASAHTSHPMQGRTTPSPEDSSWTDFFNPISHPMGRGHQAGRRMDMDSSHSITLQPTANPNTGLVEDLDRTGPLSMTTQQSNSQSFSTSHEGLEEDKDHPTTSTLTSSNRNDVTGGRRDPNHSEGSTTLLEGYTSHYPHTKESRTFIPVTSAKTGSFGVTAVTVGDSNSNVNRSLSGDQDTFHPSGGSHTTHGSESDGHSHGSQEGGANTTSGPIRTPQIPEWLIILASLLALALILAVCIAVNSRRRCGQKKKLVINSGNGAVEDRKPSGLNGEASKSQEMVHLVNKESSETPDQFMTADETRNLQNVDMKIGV
# UniProt Q8IUD2: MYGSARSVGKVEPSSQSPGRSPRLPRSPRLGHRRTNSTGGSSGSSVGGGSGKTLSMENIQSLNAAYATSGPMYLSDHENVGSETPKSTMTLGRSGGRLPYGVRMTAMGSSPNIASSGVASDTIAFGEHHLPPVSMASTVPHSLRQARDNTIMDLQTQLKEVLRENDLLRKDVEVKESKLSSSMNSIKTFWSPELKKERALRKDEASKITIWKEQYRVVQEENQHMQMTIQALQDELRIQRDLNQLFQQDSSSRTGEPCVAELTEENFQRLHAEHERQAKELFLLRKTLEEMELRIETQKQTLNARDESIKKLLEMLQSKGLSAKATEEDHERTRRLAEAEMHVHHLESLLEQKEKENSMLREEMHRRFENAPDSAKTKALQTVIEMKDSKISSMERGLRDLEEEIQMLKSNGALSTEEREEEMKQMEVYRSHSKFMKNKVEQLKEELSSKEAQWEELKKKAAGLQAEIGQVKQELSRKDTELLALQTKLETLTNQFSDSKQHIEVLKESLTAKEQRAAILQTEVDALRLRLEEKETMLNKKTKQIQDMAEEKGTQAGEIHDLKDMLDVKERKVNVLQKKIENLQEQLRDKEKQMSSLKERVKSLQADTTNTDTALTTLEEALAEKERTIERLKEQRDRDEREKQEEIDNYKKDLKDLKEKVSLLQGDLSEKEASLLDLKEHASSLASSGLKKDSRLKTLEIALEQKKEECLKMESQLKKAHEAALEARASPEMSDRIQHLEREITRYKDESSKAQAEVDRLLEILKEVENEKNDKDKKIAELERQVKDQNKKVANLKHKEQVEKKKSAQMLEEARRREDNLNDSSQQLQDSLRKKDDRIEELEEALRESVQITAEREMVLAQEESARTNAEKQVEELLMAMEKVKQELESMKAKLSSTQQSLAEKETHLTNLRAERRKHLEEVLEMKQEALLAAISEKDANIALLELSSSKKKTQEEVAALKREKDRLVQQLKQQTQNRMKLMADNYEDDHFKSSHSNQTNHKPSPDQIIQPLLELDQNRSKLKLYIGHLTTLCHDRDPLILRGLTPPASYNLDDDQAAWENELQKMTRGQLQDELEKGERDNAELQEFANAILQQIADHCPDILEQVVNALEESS
# UniProt P05556: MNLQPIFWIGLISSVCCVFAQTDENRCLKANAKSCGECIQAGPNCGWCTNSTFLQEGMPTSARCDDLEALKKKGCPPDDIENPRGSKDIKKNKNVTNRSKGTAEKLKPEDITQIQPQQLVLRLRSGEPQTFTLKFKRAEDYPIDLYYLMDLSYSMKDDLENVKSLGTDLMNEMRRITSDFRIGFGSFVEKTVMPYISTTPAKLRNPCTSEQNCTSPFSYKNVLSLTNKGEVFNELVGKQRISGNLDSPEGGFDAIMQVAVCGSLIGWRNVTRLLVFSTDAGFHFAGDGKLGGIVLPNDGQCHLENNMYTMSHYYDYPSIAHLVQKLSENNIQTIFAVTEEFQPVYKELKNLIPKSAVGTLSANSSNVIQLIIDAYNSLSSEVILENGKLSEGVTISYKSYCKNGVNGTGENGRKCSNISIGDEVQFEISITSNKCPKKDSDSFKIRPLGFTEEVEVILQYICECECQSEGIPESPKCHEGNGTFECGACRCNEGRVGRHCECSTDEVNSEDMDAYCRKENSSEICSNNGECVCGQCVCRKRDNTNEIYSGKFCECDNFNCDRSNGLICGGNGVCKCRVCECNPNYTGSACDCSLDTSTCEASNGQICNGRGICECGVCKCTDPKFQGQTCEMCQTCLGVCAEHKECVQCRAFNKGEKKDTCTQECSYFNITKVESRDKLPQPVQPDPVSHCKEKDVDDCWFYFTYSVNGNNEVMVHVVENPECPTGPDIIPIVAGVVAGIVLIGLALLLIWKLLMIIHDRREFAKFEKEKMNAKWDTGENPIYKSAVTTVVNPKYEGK
# No constants are given. Whether binding was seen depends on the method and setting. In cells and extracts the contact can be indirect. These calls come from enrichment with a bait or labelling near it, and not all partners need be listed. Sequences can lack the tags named with a protein.
# T1: Flag-GCWT (wild type group-specific component protein, vitamin D binding protein) (UniProt P02774)
# T1 sequence: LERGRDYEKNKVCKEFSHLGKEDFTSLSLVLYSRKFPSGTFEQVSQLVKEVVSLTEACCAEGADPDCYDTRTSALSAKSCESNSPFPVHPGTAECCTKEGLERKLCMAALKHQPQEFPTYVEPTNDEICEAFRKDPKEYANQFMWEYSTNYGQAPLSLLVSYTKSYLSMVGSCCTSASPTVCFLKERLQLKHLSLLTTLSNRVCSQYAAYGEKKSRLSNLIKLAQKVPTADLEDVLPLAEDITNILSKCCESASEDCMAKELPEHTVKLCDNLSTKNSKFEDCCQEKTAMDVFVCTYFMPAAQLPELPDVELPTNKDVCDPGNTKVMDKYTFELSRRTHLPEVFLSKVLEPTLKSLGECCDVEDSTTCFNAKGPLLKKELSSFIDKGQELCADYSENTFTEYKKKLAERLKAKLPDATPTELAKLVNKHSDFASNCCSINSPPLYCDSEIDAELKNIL
# B1: ANXA1 (protein, UniProt P04083 1-346)
# chain: MAMVSEFLKQAWFIENEEQEYVQTVKSSKGGPGSAVSPYPTFNPSSDVAALHKAIMVKGVDEATIIDILTKRNNAQRQQIKAAYLQETGKPLDETLKKALTGHLEEVVLALLKTPAQFDADELRAAMKGLGTDEDTLIEILASRTNKEIRDINRVYREELKRDLAKDITSDTSGDFRNALLSLAKGDRSEDFGVNEDLADSDARALYEAGERRKGTDVNVFNTILTTRSYPQLRRVFQKYTKYSKHDMNKVLDLELKGDIEKCLTAIVKCATSKPAFFAEKLHQAMKGVGTRHKALIRIMVSRSEIDMNDIKAFYQKMYGISLCQAILDETKGDYEKILVALCGGN
# B2: EHD1 (protein, UniProt Q9H4M9 1-534)
# chain: MFSWVSKDARRKKEPELFQTVAEGLRQLYAQKLLPLEEHYRFHEFHSPALEDADFDNKPMVLLVGQYSTGKTTFIRHLIEQDFPGMRIGPEPTTDSFIAVMHGPTEGVVPGNALVVDPRRPFRKLNAFGNAFLNRFMCAQLPNPVLDSISIIDTPGILSGEKQRISRGYDFAAVLEWFAERVDRIILLFDAHKLDISDEFSEVIKALKNHEDKIRVVLNKADQIETQQLMRVYGALMWSLGKIINTPEVVRVYIGSFWSHPLLIPDNRKLFEAEEQDLFKDIQSLPRNAALRKLNDLIKRARLAKVHAYIISSLKKEMPNVFGKESKKKELVNNLGEIYQKIEREHQISPGDFPSLRKMQELLQTQDFSKFQALKPKLLDTVDDMLANDIARLMVMVRQEESLMPSQVVKGGAFDGTMNGPFGHGYGEGAGEGIDDVEWVVGKDKPTYDEIFYTLSPVNGKITGANAKKEMVKSKLPNTVLGKIWKLADVDKDGLLDDEEFALANHLIKVKLEGHELPADLPPHLVPPSKRRHE
# Biological target: T1, Flag-GCWT (wild type group-specific component protein, vitamin D binding protein)
# Test: affinity purification with mass spectrometry; Flag-GCWT overexpression plasmid transfected into shGCWT Patu8988; immunoprecipitation with Flag antibody; liquid chromatography tandem mass spectrometry
row,Molecule,binding
1,EZR (from UniProt P15311 1-586),binds
2,SLC2A1 (from UniProt P11166 1-492),binds
3,CD44 (from UniProt P16070 21-742) (receptor),binds
4,ERC1 (from UniProt Q8IUD2 1-1116),binds
5,integrin β1 (ITGB1) (from UniProt P05556 21-798) (receptor),binds
6,B1,binds
7,B2,binds
